Results are given in words; binding and its absence hold for the method and conditions named. In cells and extracts the contact can be indirect. Binding can be weak; no strength is given. Tags and fused reporters may be left off the sequences shown.
Legend:
[1] = target: GFP-tagged IGF-II mRNA-binding protein (GFP-Imp) (Drosophila); experiment: co-IP; S2R+ cells, 2 mg protein lysate incubated 2 h with Myc-Trap or GFP-Trap beads; in the absence or presence of 50 U RNase T1; immunoblot
[2] = target: Myc-tagged eukaryotic initiation factor 4G (Myc-eIF4G) (Drosophila); experiment: as above
[3] = target: eukaryotic initiation factor 4G (eIF4G), endogenous in ovaries (Drosophila (endogenous in ovaries)); experiment: co-IP; ovary extracts of flies expressing Venus-Mkrn1, IP buffer (1 X PBS, 0.4% Triton X-100, 1 mM MgCl2, 5% glycerol); IP with anti-pAbp Fab antibody or α-eIF4G rabbit antibody overnight at 4°C, protein A agarose; RNase A when present; western blot

Row | Binder | binding [1] | binding [2] | binding [3]
1 | tagged Mkrn1^RING (protein, UniProt Q9VP20 1-386) MSAVTSSDTAISGMALGRSQTICRYYVRGICRFGELCRFSHDLSRGRPECEEQVATDVLPKPSTSSSSTIGSRSASISSQQRNWANAPVFVPSQKRYTAHEQSEFETTVDPEAVMEAQAGASYDTLAPGVSWAEVVGGPSSLNKEDYGEENSSCAWGEFSAYPIHMELCEMCDQYCLHPTDQVQRRSHNRECLQQHEQAMELSFAIARSKDKTCGICFDTIMEKAGREKRFGILPNCNEIFCLECIRTWRQAKQFENKITRACPECRVCSDFVCPSAFWMETKEEKDKLLNDYRAALGAKDCKYFKKGEGKCPFGNKCFYKHALPNGDIVDVGLPKRTRKLQSQNEIIDLLDIYLWDYVDRRDYHWLEMISSDITSSESSDYSDED | binds | binds | 
2 | Venus-tagged Mkrn1 (Venus-Mkrn1) (protein, UniProt Q9VP20 1-386) MSAVTSSDTAISGMALGRSQTICRYYVRGICRFGELCRFSHDLSRGRPECEEQVATDVLPKPSTSSSSTIGSRSASISSQQRNWANAPVFVPSQKRYTAHEQSEFETTVDPEAVMEAQAGASYDTLAPGVSWAEVVGGPSSLNKEDYGEENSSCAWGEFSAYPIHMELCEMCDQYCLHPTDQVQRRSHNRECLQQHEQAMELSFAIARSKDKTCGICFDTIMEKAGREKRFGILPNCNHIFCLECIRTWRQAKQFENKITRACPECRVCSDFVCPSAFWMETKEEKDKLLNDYRAALGAKDCKYFKKGEGKCPFGNKCFYKHALPNGDIVDVGLPKRTRKLQSQNEIIDLLDIYLWDYVDRRDYHWLEMISSDITSSESSDYSDED |  |  | binds

From publication PMC7001992
